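A panel of P. falciparum strains inside erythrocytes is exposed to compounds for three days, then a DNA-binding dye reports the amount of parasite DNA.
Each compound was titrated across a series from about 0.000037 to 29 µM.
The number is the fitted AC50, the concentration giving a half-maximal change in signal; a lower value means higher potency, whether the curve shows a decrease or an increase.
Calls follow the curve class and fit quality: every row here is inconclusive, covering signal-raising curves and weak, poorly fitted, partial or highest-dose-only inhibition curves.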

Values are in nM.
Every entry below has the call inconclusive.
These entries are mostly ones the record files as inconclusive; other results of the assay are not listed here.
A potency from a partial, single-point or poor curve is only a rough figure.
The first word of each remark tells which way the curve ran; it can be opposite to the aim of the assay.

Compound,tested on / at,fitted potency (nM),remark
NC(CS)C(=O)O (centres undefined),C2A,6310,"inhibitor, partial curve"
NC(CS)C(=O)O (centres undefined),PAD,10000,"inhibitor, single point"
NC(CS)C(=O)O (centres undefined),CP250,12589,"inhibitor, single point"
NC(CS)C(=O)O (centres undefined),AS120,10000,"inhibitor, single point"
NC(CS)C(=O)O (centres undefined),CP297,53.6,activator
NC(CS)C(=O)O (centres undefined),CP335,19011,"inhibitor, single point"
NC(CS)C(=O)O (centres undefined),CP252,12589,"inhibitor, single point"
NC(CS)C(=O)O (centres undefined),CP291,19011,"inhibitor, single point"
CC(C)NC[C@@H](O)COc1cccc2ccccc12,CP191,11220,"inhibitor, single point"
CC(C)NC[C@@H](O)COc1cccc2ccccc12,CP185,10000,"inhibitor, single point"
CC(C)NC[C@@H](O)COc1cccc2ccccc12,P93_24,10000,"inhibitor, single point"
CC(C)NC[C@@H](O)COc1cccc2ccccc12,parasite line B,10000,"inhibitor, single point"
CC(C)NC[C@@H](O)COc1cccc2ccccc12,CP291,7569,"inhibitor, partial curve"
CC(C)NC[C@@H](O)COc1cccc2ccccc12,CP215,15101,"inhibitor, single point"
CC(C)NC[C@@H](O)COc1cccc2ccccc12,CP252,12589,"inhibitor, partial curve"
CC(C)NC[C@@H](O)COc1cccc2ccccc12,PAD,11220,"inhibitor, single point"
CC(C)NC[C@@H](O)COc1cccc2ccccc12,PC26,19011,"inhibitor, single point"
CC(C)NC[C@@H](O)COc1cccc2ccccc12,SC27B,11220,"inhibitor, single point"
CC(C)NC[C@@H](O)COc1cccc2ccccc12,DFO2036,8912,"inhibitor, single point"
CC(C)NC[C@@H](O)COc1cccc2ccccc12,CP256,12589,"inhibitor, single point"
CC(C)NC[C@@H](O)COc1cccc2ccccc12,ECU,8912,"inhibitor, partial curve, poor fit"
CC(C)NC[C@@H](O)COc1cccc2ccccc12,CP269,19011,"inhibitor, single point"
CC(C)NC[C@@H](O)COc1cccc2ccccc12,JCK,10000,"inhibitor, single point"
CC(C)NC[C@@H](O)COc1cccc2ccccc12,ATS95,10000,"inhibitor, single point"
CC(C)NC[C@@H](O)COc1cccc2ccccc12,CP286,10000,"inhibitor, single point"
CC(C)NC[C@@H](O)COc1cccc2ccccc12,DIV30,15101,"inhibitor, partial curve"
CC(C)NC[C@@H](O)COc1cccc2ccccc12,CP247,1000,"inhibitor, partial curve"

The last 3 entries again:

| Compound | tested on / at | fitted potency (nM) | remark |
|---|---|---|---|
| `CC(C)NC[C@@H](O)COc1cccc2ccccc12` | CP286 | 10000 | inhibitor, single point |
| `CC(C)NC[C@@H](O)COc1cccc2ccccc12` | DIV30 | 15101 | inhibitor, partial curve |
| `CC(C)NC[C@@H](O)COc1cccc2ccccc12` | CP247 | 1000 | inhibitor, partial curve |

From PubChem BioAssay record AID504749 (NCATS, 2011).